From article PMC13193366
Results are given in words; binding and its absence hold for the method and conditions named. In cells and extracts the contact can be indirect. For part of these data: Binding calls can cover weak binding; strength is not graded here. Where a sequence is shown, tags or fusion partners need not be part of it.

Key:
Assay in all cases: FRET or BRET; FLIM-FRET: GFP fluorescence lifetime in nuclei of Nicotiana tabacum leaf epidermal cells co-expressing GFP- and mCherry/RFP-tagged proteins; measured within nuclear speckles (AtPWO1, SmPWOa) or in the nucleolus (SmPWOb)
[1] = target: mCherry-AtSWNΔSET (i35Spro::mCherry-AtSWNΔSET) (Arabidopsis thaliana)
[2] = target: SmCLF-mCherry (i35Spro::SmCLF-mCherry) (Selaginella moellendorffii)
[3] = target: mCherry-AtCLFΔSET (i35Spro::mCherry-AtCLFΔSET) (Arabidopsis thaliana)

B1: AtPWO1-GFP (i35Spro::AtPWO1-GFP) (protein, UniProt Q9M9N3 1-769)
chain: MASPGSGAVDWTVGSIVWVRRRNGSWWPGRILGQEDLDSTHITSPRSGTPVKLLGREDASVDWYNLEKSKRVKPFRCGDFDECIERVESSQAMIIKKREKYARREDAILHALELEKEMLKREGKLVPEKARDDSLDATKERMAIVRVQDTSNGTRESTDYLRTNHVGDVMHLLRDKEEDQPSCEDEAVPRMRGLQDFGLRTASSKRKISCSNGPDTSFKYLARSNSSASSSGDHSMERPIYTLGKEKTKSRAEAKRTKYMFTPSESNDVSDLHENLLSHRDAMHSSFAGGDTRYSDYDPPNFLEDMESDYSESETDSSDMEEDTDDDIPLLSGAGRHSERRNTFSRHTSGEDESTSSEEDHYESSISGDSSYLYSQNPNNEASTVSNWQHKGKRNFRTLPRRSARKRKLHRNRLEDGRYCEYKRRAFGQKPMGYGLDFNGINDMSDGTDDTDPNERQFGDRMIVPGDDYQLSNVVASRCKNIYSHDMLDWDDDPWEGRIGMKKRGEEKLEGLGQEFDVSERHFGRKTYSSLMDVDLEVRGSYQKGPVPIVSLMSKLNGRAIIGHPVEVEVLADGSSESYIQTIDYFGNETTYQDKTFLLPSAWKTARRSNSRVPRLQPFSSSVEADDDATYDYSLADQGRKPLVKKLGLGHFSNDDNSVRRNSSLRIPRPPAERKQQHQQQQKKLLKNTNATASQKTRALSSFSGEQGHNGMKASRDRTHELSNRRVLPGPPTVACIPVKLVYSRLLEKINRPPSKPTAKAFNERRRVQ
With B1 the binding [1] was “binds”, the binding [2] was “no binding” and the binding [3] was “no binding”.
